# Article PMC5448812, “Distinct DNA-binding surfaces in the ATPase and linker domains of MutLγ determine its substrate specificities and exert separable functions in meiotic recombination and mismatch repair” (PLoS Genetics, 2017)
# Assays:
# [1] = tested on: MutLgamma double mutants (Mlh1 mutant + Mlh3 mutant) (Saccharomyces cerevisiae (S288c strain SKY4158)); assay: EMSA; details: more affected than single mutants, EMSA: 25 mM Tris-HCl pH 7.5, 15% glycerol, 100 mM NaCl, 2 mM DTT, 5 mM EDTA, 1 mg/ml BSA, 30 min 30 C, 1 nM DNA, recombinant protein, protein details: N-terminal 6xHis-2xFlag on Mlh1, label: 5'-32P when used as probe
# [2] = tested on: HisFlag-Mlh1 + Mlh3; assay: competition with a labelled probe; details: EMSA: 25 mM Tris-HCl pH 7.5, 15% glycerol, 100 mM NaCl, 2 mM DTT, 5 mM EDTA, 1 mg/ml BSA, 30 min 30 C, 1 nM DNA, recombinant protein, protein details: N-terminal 6xHis-2xFlag,none
# [3] = tested on: HisFlag-Mlh1 + Mlh3; assay: FeBABE footprinting; details: FeBABE-conjugated, recombinant protein, protein details: N-terminal 6xHis-2xFlag,none, label: 3'-biotin on strand 1, folded or branched DNA, letters put together from the description
# [4] = tested on: Mlh1 untagged + HisFlag-Mlh3; assay: FeBABE footprinting; details: FeBABE-conjugated, recombinant protein, label: 3'-biotin on strand 1, folded or branched DNA, letters put together from the description
# [5] = segment 2 probe, phosphorothioates in strands 2 and 3 (segment 2)
sequence,measurement,setting,value
"TTTTTTTTTTTTTTTTTTTTTTTTTTTTTTTTTTTTTTTTTTTTTTTTTTTTTTTTTTTTTTTTTTTTTTTTTTTTTTTT [ssDNA80 (cb099, poly-dT)]",binding result,[1]; single-stranded DNA,binds more weakly
same,binding result,"[2]; cold ssDNA vs labeled HJ, label: 5'-32P when used as probe, single-stranded DNA",binds more weakly
CTAGTATAGAGCCGGCGCGCCATGTCTAGATAGCGTTAGGTCTGCCGAATAGTACTACTCGGATCCCGAGCGAACCACGC / GCGTGGTTCGCTCGGGATCCGAGTAGTACTATTCGGCAGAGGATTCGAATAGGCCTAATCGAATTCCGCCATCGATGCAC / GTGCATCGATGGCGGAATTCGATTAGGCCTATTCGAATCCAGACGCGAGTAGATCTTCACGGTACCCGCGGTTACCCGTG / CACGGGTAACCGCGGGTACCGTGAAGATCTACTCGCGTCTCCTAACGCTATCTAGACATGGCGCGCCGGCTCTATACTAG [HJ80 (cb095-098)],binding result,[1]; folded or branched DNA,binds more weakly
same,binding result,"[2]; cold HJ vs labeled ssDNA, label: 5'-32P when used as probe, folded or branched DNA",binds more weakly
TTTTTTTTTTTTTTTTTTTTTTTTTTTTTTTTTTTTTTTTTTTTTTTTTT [poly-dT 50 nt],binding result,"[2]; vs labeled poly-dT 80 nt, single-stranded DNA",binds more weakly
"CTAGTATAGAGCCGGCGCGCCATGTCTAGATAGCGTTAGGTCTGCCGAATAGTACTACTCGGATCCCGAGCGAACCACGC / GCGTGGTTCGCTCGGGATCCGAGTAGTACTATTCGGCAGAGGATTCGAATAGGCCTAATCGAATTCCGCCATCGATGCAC / GTGCATCGATGGCGGAATTCGATTAGGCCTATTCGAATCCAGACGCGAGTAGATCTTCACGGTACCCGCGGTTACCCGTG / CACGGGTAACCGCGGGTACCGTGAAGATCTACTCGCGTCTCCTAACGCTATCTAGACATGGCGCGCCGGCTCTATACTAG [HJ+3 (cb256, 347, 365, 98)]",binding result,"[3]; segment 3 probe, cleavage decreases >~25 bp from HJ center, phosphorothioates in strands 2 and 3 (segment 3)",binds
same,binding result,"[4]; segment 3 probe, phosphorothioates in strands 2 and 3 (segment 3)",binds
"CTAGTATAGAGCCGGCGCGCCATGTCTAGATAGCGTTAGGTCTGCCGAATAGTACTACTCGGATCCCGAGCGAACCACGC / GCGTGGTTCGCTCGGGATCCGAGTAGTACTATTCGGCAGAGGATTCGAATAGGCCTAATCGAATTCCGCCATCGATGCAC / GTGCATCGATGGCGGAATTCGATTAGGCCTATTCGAATCCAGACGCGAGTAGATCTTCACGGTACCCGCGGTTACCCGTG / CACGGGTAACCGCGGGTACCGTGAAGATCTACTCGCGTCTCCTAACGCTATCTAGACATGGCGCGCCGGCTCTATACTAG [HJ+2 (cb256, 349, 367, 98)]",binding result,[3]; [5],binds
same,binding result,[4]; [5],binds
"CTAGTATAGAGCCGGCGCGCCATGTCTAGATAGCGTTAGGTCTGCCGAATAGTACTACTCGGATCCCGAGCGAACCACGC / GCGTGGTTCGCTCGGGATCCGAGTAGTACTATTCGGCAGAGGATTCGAATAGGCCTAATCGAATTCCGCCATCGATGCAC / GTGCATCGATGGCGGAATTCGATTAGGCCTATTCGAATCCAGACGCGAGTAGATCTTCACGGTACCCGCGGTTACCCGTG / CACGGGTAACCGCGGGTACCGTGAAGATCTACTCGCGTCTCCTAACGCTATCTAGACATGGCGCGCCGGCTCTATACTAG [HJ+4 (cb256, 345, 363, 98)]",binding result,"[3]; segment 4 probe, cleavage decreases >~25 bp from HJ center, phosphorothioates in strands 2 and 3 (segment 4)",binds
same,binding result,"[4]; segment 4 probe, phosphorothioates in strands 2 and 3 (segment 4)",binds

# The exact form of at least one protein or probe is not confirmed. For some assays here: Weaker means in comparison with the reference protein, sequence or condition of that experiment. For some assays here: At least one verdict was read from the data and is not stated in words by the source.
